{"source": "patent US6514686B2", "about": "“Method and composition for modulating amyloidosis” (The University of British Columbia, priority 1997, dated 2003)", "key": {"[1]": {"system": "APPs secretion in KB-3.1 cells transfected with human MDR1 (p-glycoprotein)", "assay": "APPs secretion from KB-3.1 cells transiently transfected with pHaMDR1", "type": "cell-based", "conditions": "0.1 μM, fifteen minutes, plated cells, transfection efficiency ~10-20%; FIG. 10", "method": "KB-3.1 cells were grown as described above. The pHaMDR1 plasmid construct encoding human MDR1 was obtained as a gift from Dr. Ira Pastan (National Cancer Institute).\nFor calcium-phosphate transfections, cells were plated onto 10 cm polypropylene petri dishes (Falcon) at a density of 2.0×10^6 cells/dish. To prepare the cDNA for transfection, 15 μg/plate of pHaMDR1 cDNA was mixed together with 1/10 volumes of 3 M sodium Acetate, ˜3× volume of 100% ethanol in a 1.5 ml eppendorf tube and spun in a desktop centrifuge for thirty seconds. The tube was then filled to the top with ethanol and spun at 15,000 rpm at 4° C. for ten minutes. The ethanol was aspirated, leaving a tiny pellet of cDNA on the bottom. In a sterile fumehood, the cDNA was resuspended with 450 μl of 0.1× tris-EDTA(TE) ethylene diamine tetraacetic acid, tris EDTA and 50 μl of 2.5 M CaCl2. 500 μL of 2× BES (50 mM N, N-bis[2 Hydroxyethyl]2-aminoethanesu acid, 280 mM NaCl, 1.5 mM Na2HPO4.2 H2O, pH 6.96) was added to make a final volume of 1.0 ml. The entire mixture was allowed to sit for twenty minutes before adding the contents to the plate of cells. […]\nExposures were performed without resuspending the cells, in contrast to previous experiments described above. […] 5 μl from each sample was collected for protein quantification. Protein determination and APPs quantification were performed as previously described."}, "[2]": {"system": "APPs secretion in KB-3.1 human carcinoma cell line", "assay": "APPs secretion from KB-3.1 cells with sub-detectable p-glycoprotein", "type": "cell-based", "method": "These cells were grown in DMEM with 10% FBS. All materials and methods are as outlined as above."}}, "note": "At least one compound was matched to its structure with a doubt left."}
{"smiles": "CC#C[C@]1(O)CC[C@H]2[C@@H]3CCC4=CC(=O)CCC4=C3[C@@H](c3ccc(N(C)C)cc3)C[C@@]21C", "note": "[RU-486, 17β-hydroxy-11β-[4-dimethylaminophenyl]-17α prop-l-ynyl estra-4,9-dien-3 one]", "values": [{"measurement": "regulation of APPs secretion", "setting": "[1]", "result": "restored regulation"}, {"measurement": "modulation of APPs secretion", "setting": "[2]; cells in suspension, FIG. 9", "result": "lack modulation"}, {"measurement": "regulation of APPs secretion", "setting": "[2]; non-transfected cells exposed while plated, 0.1 μM, fifteen minutes", "result": "no regulation"}]}
